Reference: patent publication US20110020786A1, “PEPTIDE DENDRIMERS: AFFINITY REAGENTS FOR BINDING NOROVIRUSES” (BAYLOR COLLEGE OF MEDICINE, priority 2007, published 2011)
Results are given in words; binding and its absence hold for the method and conditions named. Binding calls can cover weak binding; strength is not graded here.

Legend:
Test in all cases: phage ELISA: target coated at 10 µg/mL, amplified phage added, detection with anti-M13-HRP and ABTS at 405 nm
alcohol dehydrogenase = target: alcohol dehydrogenase
carbonic anhydrase = target: carbonic anhydrase
β-amylase = target: β-amylase

Measured: binding

SVSVGMKPSPRP [1]
binds: all assays above

LGTKALSYSISI [5]
binds: all assays above

AQHTLKKWPLLV [2]
binds: all assays above
